In PMC4359025:
No constants are given. Whether binding was seen depends on the method and setting. Binding seen in cells or lysates may run through a third protein. Binding calls can cover weak binding; strength is not graded here. Tags and fused reporters may be left off the sequences shown.

Biological target: T1, Par-6 fused with Flag epitope (Par6::Flag) (Drosophila (fly)) (UniProt O97111)
T1 sequence: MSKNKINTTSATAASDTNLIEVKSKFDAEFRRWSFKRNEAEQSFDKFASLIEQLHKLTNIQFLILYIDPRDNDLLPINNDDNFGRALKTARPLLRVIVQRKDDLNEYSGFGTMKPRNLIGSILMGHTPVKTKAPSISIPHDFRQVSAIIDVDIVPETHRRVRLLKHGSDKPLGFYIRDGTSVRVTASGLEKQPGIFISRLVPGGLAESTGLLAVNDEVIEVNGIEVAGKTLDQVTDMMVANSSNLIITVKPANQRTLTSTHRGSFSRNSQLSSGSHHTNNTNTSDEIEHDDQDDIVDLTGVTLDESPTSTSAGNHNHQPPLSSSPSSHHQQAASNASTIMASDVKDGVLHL
Assay: co-IP; S2 cell lysates transfected with control DNA, HA::Pbl, or HA::Pbl and Par6::FLAG; 5 ug anti-HA or anti-Flag antibody, Protein A/G magnetic beads; western blot with anti-Flag, anti-aPKC or anti-HA

binding: binds
Substance: Pbl fused with HA epitope (Pbl::HA) (Drosophila (fly))
